{
  "source": "PubChem BioAssay AID2685",
  "about": "(National Center for Advancing Translational Sciences (NCATS), 2010)",
  "test": "qHTS Assay for Lipid Storage Modulators in Drosophila S3 Cells;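 for cell number change: cells counted by Cell Tracker Red CMTPX staining in the red channel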",
  "conditions": "BODIPY lipid droplet fluorescence, 18-24 h; for cell number change: measured here: cell count max response, cells fed with added oleic acid",
  "outline": "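Drosophila S3 cells loaded with oleic acid (400 uM, as added) and compounds at several concentrations; lipid droplets imaged by 488-nm laser-scanning cytometry, 500–530 nm intensity and object ratio to cell channel. Percent activity normalized to 20 uM Triacsin C.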",
  "key": {"[1]": {"conditions": "measured here: cell number channel AC50, cells fed with added oleic acid"}, "[2]": {"conditions": "measured here: lipid fluorescence (Fed channel) AC50, cells fed with added oleic acid"}},
  "note": "The list shows a part of the results. The main result of the screen is listed elsewhere. These columns were measured beside it and carry no call. Most of these compounds were active or inconclusive in the main read-out, so they are no random draw. Potencies come from curve fits of mixed quality, noted in brackets.",
  "data": [
    {"compound": "COC(=O)c1cc(C(=O)OC)n(Cc2ccc(Br)cc2)n1", "values": [
      {"measurement": "cell number change", "value": -73.2, "unit": "%"},
      {"measurement": "AC50", "setting": "[1]", "value": "20.6 µM [falling, single point]"}
    ]},
    {"compound": "CCOc1cc(C(=O)CCC(=O)OCC(=O)Nc2ccc(F)cc2)ccc1O", "values": [
      {"measurement": "cell number change", "value": -24, "unit": "%"}
    ]},
    {"compound": "C=C(C)COc1ccc(-c2[nH]ncc2Oc2ccc(OC)cc2)c(O)c1", "values": [
      {"measurement": "cell number change", "value": -25, "unit": "%"},
      {"measurement": "AC50", "setting": "[2]", "value": "29.1 µM [falling, single point]"}
    ]},
    {"compound": "O=C(Nc1nnc(Cc2ccccc2F)s1)Nc1ccccc1F", "values": [
      {"measurement": "cell number change", "value": -1.92, "unit": "%"},
      {"measurement": "AC50", "setting": "[2]", "value": "0.13 µM [rising, full curve, poor fit]"}
    ]},
    {"compound": "COc1ccc(OC)c(S(=O)(=O)NCC(c2ccco2)S(=O)(=O)c2ccccc2)c1", "note": "(stereo not given)", "values": [
      {"measurement": "cell number change", "value": 16.4, "unit": "%"},
      {"measurement": "AC50", "setting": "[2]", "value": "10.3 µM [rising, partial curve, poor fit]"}
    ]},
    {"compound": "Cc1ccc(N=C2NC(=O)CC(C(=O)Nc3ccc4c(c3)OCO4)S2)cc1", "note": "(stereo not given)", "values": [
      {"measurement": "cell number change", "value": 46.8, "unit": "%"}
    ]},
    {"compound": "CCOC(=O)CN1C(=O)C(CC)Oc2ccc(Cl)cc21", "note": "(stereo not given)", "values": [
      {"measurement": "cell number change", "value": 14.9, "unit": "%"},
      {"measurement": "AC50", "setting": "[2]", "value": "9.2 µM [rising, partial curve, poor fit]"}
    ]},
    {"compound": "CC(C)(C)NC(=O)COc1ccc(S(=O)(=O)N2CCCC2)cc1", "values": [
      {"measurement": "cell number change", "value": 8.39, "unit": "%"},
      {"measurement": "AC50", "setting": "[2]", "value": "16.4 µM [falling, single point]"}
    ]},
    {"compound": "CCOc1ccc(C(C(=O)NC(C)(C)C)N(CCOC)C(=O)CCC(=O)Nc2ccccn2)cc1", "note": "(stereo not given)", "values": [
      {"measurement": "cell number change", "value": -21.4, "unit": "%"}
    ]},
    {"compound": "CCC(C)(C)NC(=O)C(c1cccc(OC)c1OC)N(CCOC)C(=O)CCC(=O)Nc1cc(C)on1", "note": "(stereo not given)", "values": [
      {"measurement": "cell number change", "value": 34.6, "unit": "%"},
      {"measurement": "AC50", "setting": "[1]", "value": "32.6 µM [rising, single point]"},
      {"measurement": "AC50", "setting": "[2]", "value": "29.1 µM [falling, single point]"}
    ]},
    {"compound": "O=C(CNC(=O)c1sc2ccccc2c1Cl)NCc1ccc(F)cc1", "values": [
      {"measurement": "AC50", "setting": "[1]", "value": "0.651 µM [rising, full curve]"}
    ]},
    {"compound": "CCCCn1c(=N)n(CC(=O)c2ccc(Br)s2)c2ccccc21", "values": [
      {"measurement": "cell number change", "value": -16.5, "unit": "%"},
      {"measurement": "AC50", "setting": "[2]", "value": "32.6 µM [falling, single point]"}
    ]},
    {"compound": "Cc1ccccc1C(=O)NC(CC(C)C)C(=O)Nc1cccc(S(=O)(=O)N(C)C)c1", "note": "(stereo not given)", "values": [
      {"measurement": "cell number change", "value": -18, "unit": "%"},
      {"measurement": "AC50", "setting": "[1]", "value": "5.17 µM [rising, single point]"},
      {"measurement": "AC50", "setting": "[2]", "value": "2.06 µM [rising, partial curve]"}
    ]},
    {"compound": "CCc1ccccc1NC(=O)CSc1nnc(-c2ccco2)n1N", "values": [
      {"measurement": "cell number change", "value": -0.204, "unit": "%"},
      {"measurement": "AC50", "setting": "[2]", "value": "0.184 µM [rising, full curve]"}
    ]},
    {"compound": "O=C(O)/C(=C\\c1ccccc1OC(F)F)Sc1nnc(-c2ccc(F)cc2)o1", "values": [
      {"measurement": "cell number change", "value": -8.53, "unit": "%"}
    ]},
    {"compound": "CN1CCN(S(=O)(=O)c2ccc(Cl)c3ccccc23)CC1", "values": [
      {"measurement": "cell number change", "value": 19.8, "unit": "%"},
      {"measurement": "AC50", "setting": "[1]", "value": "1.84 µM [rising, partial curve, poor fit]"},
      {"measurement": "AC50", "setting": "[2]", "value": "11.6 µM [rising, single point]"}
    ]},
    {"compound": "CCCOc1ccc(C(=O)CCC(=O)OC(C)C(=O)Nc2ccc(NC(C)=O)cc2)cc1", "note": "(stereo not given)", "values": [
      {"measurement": "cell number change", "value": 47.9, "unit": "%"},
      {"measurement": "AC50", "setting": "[1]", "value": "6.51 µM [falling, single point]"},
      {"measurement": "AC50", "setting": "[2]", "value": "2.06 µM [falling, partial curve]"}
    ]},
    {"compound": "O=C(Cn1cc([N+](=O)[O-])ccc1=O)N1CCCc2ccccc21", "values": [
      {"measurement": "cell number change", "value": -0.694, "unit": "%"},
      {"measurement": "AC50", "setting": "[2]", "value": "0.517 µM [falling, full curve]"}
    ]},
    {"compound": "CCOCCCNC(=O)c1cc2c(s1)-c1ccccc1SC2", "values": [
      {"measurement": "cell number change", "value": 9.15, "unit": "%"},
      {"measurement": "AC50", "setting": "[2]", "value": "29.1 µM [falling, single point]"}
    ]},
    {"compound": "N/C(=N\\OC(=O)Nc1ccc(Cl)cc1)c1ncc(C(F)(F)F)cc1Cl", "values": [
      {"measurement": "cell number change", "value": -15.6, "unit": "%"},
      {"measurement": "AC50", "setting": "[2]", "value": "6.51 µM [falling, partial curve]"}
    ]},
    {"compound": "O=c1cc(O)nc(SCc2ccccc2)n1-c1ccc(Cl)cc1", "values": [
      {"measurement": "cell number change", "value": 13.3, "unit": "%"}
    ]},
    {"compound": "Cc1ccc(S(=O)(=O)C(C)C(=O)NCCS(=O)(=O)c2ccc(Cl)cc2)cc1", "note": "(stereo not given)", "values": [
      {"measurement": "cell number change", "value": -30.1, "unit": "%"},
      {"measurement": "AC50", "setting": "[2]", "value": "18.4 µM [falling, single point]"}
    ]},
    {"compound": "COc1cccc(OC)c1C(=O)N1CCN(Cc2ccc3c(c2)OCO3)CC1", "values": [
      {"measurement": "cell number change", "value": -34.6, "unit": "%"},
      {"measurement": "AC50", "setting": "[1]", "value": "32.6 µM [falling, single point]"}
    ]},
    {"compound": "CC(C)c1ccc(/C=C2\\NC(=O)NC2=O)cc1", "values": [
      {"measurement": "cell number change", "value": -35.2, "unit": "%"},
      {"measurement": "AC50", "setting": "[1]", "value": "11.6 µM [falling, partial curve, poor fit]"}
    ]},
    {"compound": "Cc1ccccc1N1C(=O)C2ON(c3ccccc3)C(c3ccncc3)C2C1=O", "note": "(stereo not given)", "values": [
      {"measurement": "cell number change", "value": 7.15, "unit": "%"}
    ]},
    {"compound": "CCCCCCC1CCC(C(=O)Nn2c(C)nc3ccccc3c2=O)CC1", "note": "(stereo not given)", "values": [
      {"measurement": "cell number change", "value": -51.2, "unit": "%"}
    ]},
    {"compound": "c1ccc(-c2ccccc2OCCn2cncn2)cc1", "values": [
      {"measurement": "AC50", "setting": "[2]", "value": "0.00461 µM [rising, full curve, poor fit]"}
    ]},
    {"compound": "CCCCCOc1ccc(CSc2n[nH]c(C)n2)cc1", "values": [
      {"measurement": "cell number change", "value": -15.1, "unit": "%"},
      {"measurement": "AC50", "setting": "[2]", "value": "29.1 µM [falling, single point]"}
    ]},
    {"compound": "O=C(CNCC1CCCCC1)Nc1ccccc1N1CCCCC1", "values": [
      {"measurement": "cell number change", "value": -47.2, "unit": "%"},
      {"measurement": "AC50", "setting": "[1]", "value": "5.8 µM [falling, partial curve, poor fit]"},
      {"measurement": "AC50", "setting": "[2]", "value": "0.184 µM [falling, full curve, poor fit]"}
    ]},
    {"compound": "CCN(Cc1cc2cc(C)ccc2[nH]c1=O)C(=O)c1cccc([N+](=O)[O-])c1", "values": [
      {"measurement": "cell number change", "value": -3.27, "unit": "%"},
      {"measurement": "AC50", "setting": "[1]", "value": "6.51 µM [rising, single point]"}
    ]},
    {"compound": "O=C(c1ccc2c(c1)OCO2)N1CCN(c2ccccn2)CC1", "values": [
      {"measurement": "cell number change", "value": 31.3, "unit": "%"},
      {"measurement": "AC50", "setting": "[1]", "value": "1.64 µM [rising, full curve]"},
      {"measurement": "AC50", "setting": "[2]", "value": "2.06 µM [rising, full curve]"}
    ]},
    {"compound": "CS(=O)(=O)Nc1ccc([N+](=O)[O-])cc1Oc1ccccc1", "values": [
      {"measurement": "cell number change", "value": -22.5, "unit": "%"},
      {"measurement": "AC50", "setting": "[2]", "value": "29.1 µM [falling, single point]"}
    ]},
    {"compound": "CCOC(=O)C1=C(C)N(c2ccc(OC)cc2)C(=O)/C1=C\\c1ccc(O)c(OCC)c1", "values": [
      {"measurement": "cell number change", "value": -65.7, "unit": "%"},
      {"measurement": "AC50", "setting": "[1]", "value": "18.4 µM [falling, partial curve]"},
      {"measurement": "AC50", "setting": "[2]", "value": "1.84 µM [falling, full curve]"}
    ]},
    {"compound": "COc1ccc(CCNC(=O)C2Cc3ccccc3C(=O)O2)cc1", "note": "(stereo not given)", "values": [
      {"measurement": "cell number change", "value": -50.8, "unit": "%"},
      {"measurement": "AC50", "setting": "[2]", "value": "0.731 µM [rising, partial curve, poor fit]"}
    ]},
    {"compound": "COc1cc(CC(=O)Nc2ncc(C)s2)cc(OC)c1OC", "values": [
      {"measurement": "cell number change", "value": 220, "unit": "%"},
      {"measurement": "AC50", "setting": "[1]", "value": "8.2 µM [rising, partial curve]"},
      {"measurement": "AC50", "setting": "[2]", "value": "0.291 µM [rising, full curve]"}
    ]},
    {"compound": "COc1ccc(C)cc1NS(=O)(=O)c1ccc2c(c1)NC(=O)C(C)S2", "note": "(stereo not given)", "values": [
      {"measurement": "cell number change", "value": -22.2, "unit": "%"}
    ]},
    {"compound": "COc1ccc([C@H]2CC(=O)C=C(c3ccc(-c4ccccc4)c(F)c3)C2)cc1OC", "values": [
      {"measurement": "cell number change", "value": 11.4, "unit": "%"},
      {"measurement": "AC50", "setting": "[2]", "value": "13 µM [rising, single point]"}
    ]},
    {"compound": "COc1ccc(C(=O)NCCN2CCOCC2)c(OC)c1", "values": [
      {"measurement": "cell number change", "value": -8.7, "unit": "%"},
      {"measurement": "AC50", "setting": "[1]", "value": "6.51 µM [rising, single point]"},
      {"measurement": "AC50", "setting": "[2]", "value": "29.1 µM [rising, single point]"}
    ]}
  ]
}
